Reference: article PMC12524789, “The Interplay Between CB2 and NMDA Receptors in Parkinson’s Disease” (International Journal of Molecular Sciences, 2025)
These are yes or no findings as the source states them, for the method shown. In cells and extracts the contact can be indirect. Some results given as binding are weak or reduced against the parent protein; the word gives no strength.

Sequences of proteins named here, by UniProt entry; tags and fusion partners are left off.
UniProt P34972: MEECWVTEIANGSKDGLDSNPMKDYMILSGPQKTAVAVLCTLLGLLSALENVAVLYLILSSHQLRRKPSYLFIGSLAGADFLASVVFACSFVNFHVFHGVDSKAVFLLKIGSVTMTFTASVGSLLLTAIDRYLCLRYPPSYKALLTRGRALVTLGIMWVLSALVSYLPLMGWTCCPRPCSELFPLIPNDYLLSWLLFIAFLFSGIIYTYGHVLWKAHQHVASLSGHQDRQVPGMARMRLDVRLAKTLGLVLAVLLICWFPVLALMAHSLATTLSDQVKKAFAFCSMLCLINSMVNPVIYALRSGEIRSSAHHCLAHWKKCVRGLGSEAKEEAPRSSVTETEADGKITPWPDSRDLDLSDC
UniProt Q92847: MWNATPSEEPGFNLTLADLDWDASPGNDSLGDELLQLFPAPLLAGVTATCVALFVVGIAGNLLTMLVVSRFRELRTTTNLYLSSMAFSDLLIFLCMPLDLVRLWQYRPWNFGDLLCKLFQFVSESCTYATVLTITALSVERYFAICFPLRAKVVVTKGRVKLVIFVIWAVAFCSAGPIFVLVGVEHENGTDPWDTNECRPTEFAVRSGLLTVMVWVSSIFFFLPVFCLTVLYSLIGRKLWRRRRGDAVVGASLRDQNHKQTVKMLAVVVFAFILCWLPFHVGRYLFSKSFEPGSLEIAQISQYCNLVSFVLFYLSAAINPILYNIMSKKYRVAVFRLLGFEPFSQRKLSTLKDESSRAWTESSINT

Legend:
[1] = target: NMDA receptor of NR1A fused to Renilla luciferase (NR1A-Rluc) co-expressed with NR2B (human) (UniProt Q05586+Q13224); test: FRET or BRET; BRET saturation in living HEK-293T cells: constant cDNA for NR1A-Rluc (0.5 µg) and NR2B (0.3 µg), increasing cDNA for CB2R-YFP (0 to 2.5 µg) or GHSR1A-YFP (0 to 10 µg); vehicle-treated; 5 µM coelenterazine H, HBSS pH 7.4
[2] = target: Cannabinoid receptor 2 fused to the yellow fluorescent protein (CB2R-YFP) (human) (UniProt P34972); test: FRET or BRET; β-arrestin II recruitment by BRET in HEK-293T cells with CB2R-YFP, NR1, NR2B and β-arrestin II-Rluc; 100 nM JWH-133; NMDA alone induced no response
[3] = target: Cannabinoid receptor 2 fused to the yellow fluorescent protein (CB2R-YFP) (human) (UniProt P34972); test: condition: only co-treatment with 15 µM NMDA, NR1 and NR2B co-expressed; FRET or BRET; β-arrestin II recruitment by BRET as a5, with 100 nM JWH-133 and 15 µM NMDA together
[4] = target: Cannabinoid receptor 2 fused to the yellow fluorescent protein (CB2R-YFP) (human) (UniProt P34972); test: condition: only cells treated with 10 µg/L α-syn fibrils for 48 h; FRET or BRET; β-arrestin II recruitment by BRET as a3 (100 nM JWH-133), in cells treated with α-syn fibrils for 48 h
[5] = target: Cannabinoid receptor 2 fused to the yellow fluorescent protein (CB2R-YFP) (human) (UniProt P34972); test: FRET or BRET; β-arrestin II recruitment by BRET in HEK-293T cells with CB2R-YFP (1.2 µg cDNA) and β-arrestin II-Rluc (0.4 µg cDNA); 100 nM JWH-133; pre-treatment with 1 µM SR144528 counteracted the signal
[6] = target: Cannabinoid receptor 2 fused to the yellow fluorescent protein (CB2R-YFP) (human) (UniProt P34972); test: condition: only cells treated with 10 µg/L α-syn fibrils for 48 h, NR1 and NR2B co-expressed; FRET or BRET; β-arrestin II recruitment by BRET as a5 (100 nM JWH-133), in cells treated with α-syn fibrils for 48 h

For “Ghrelin receptor GHSR1A fused to the yellow fluorescent protein (GHSR1A-YFP) (from UniProt Q92847 1-366)”, the binding [1] was “no binding”.

With “β-arrestin II fused to Renilla luciferase (β-arrestin II-Rluc) (from UniProt P32121 1-409)” the binding [2] was “binds”, the binding [3] was “no binding” and the binding [4] was “no binding”. For the same substance, the binding [5] was “binds” and the binding [6] was “no binding”.
